# Data from the supplement of paper PMC8728848.
# The other results are listed elsewhere or left out.
# Tests used:
# Test in all cases: glycan array binding signal (z-score within array); higher = stronger binding
# Conditions in all cases: glycan notation: IUPAC condensed, linker removed
# [1] = target: Fuc(a1-2)Gal6S(b1-3)GlcNAc6S
# In short: (§1)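 Glycan array binding is given as a within-array Z-score, which can be read as non-binding when negative. The arrays, 3228 of them, came from the Consortium for Functional Glycomics database and were retained only where the protein sequence was available. Z-scores were averaged across arrays of the same protein sequence at different concentrations or buffers and across linkers.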
# Fuc(a1-2)Gal6S(b1-4)Glc = target: Fuc(a1-2)Gal6S(b1-4)Glc
# In short: as §1
# [2] = target: Fuc(a1-2)Gal6S(b1-4)Glc6S
# In short: as §1
# Fuc(a1-2)[Gal(a1-3)]Gal = target: Fuc(a1-2)[Gal(a1-3)]Gal
# In short: as §1
# [3] = target: Fuc(a1-2)[Gal(a1-3)]Gal(b1-3)GalNAc
# In short: as §1
# [4] = target: Fuc(a1-2)[Gal(a1-3)]Gal(b1-3)GalNAc(b1-3)Gal(a1-4)Gal(b1-4)Glc
# In short: as §1
# [5] = target: Fuc(a1-2)[Gal(a1-3)]Gal(b1-3)GlcNAc
# In short: as §1
# [6] = target: Fuc(a1-2)[Gal(a1-3)]Gal(b1-3)GlcNAc(b1-2)Man(a1-3)[Fuc(a1-2)[Gal(a1-3)]Gal(b1-3)GlcNAc(b1-2)Man(a1-6)]Man(b1-4)GlcNAc(b1-4)GlcNAc
# In short: as §1
# [7] = target: Fuc(a1-2)[Gal(a1-3)]Gal(b1-3)GlcNAc(b1-2)Man(a1-3)[Fuc(a1-2)[Gal(a1-3)]Gal(b1-3)GlcNAc(b1-2)Man(a1-6)]Man(b1-4)GlcNAc(b1-4)[Fuc(a1-6)]GlcNAc
# In short: as §1
# [8] = target: Fuc(a1-2)[Gal(a1-3)]Gal(b1-3)GlcNAc(b1-3)GalNAc
# In short: as §1
# [9] = target: Fuc(a1-2)[Gal(a1-3)]Gal(b1-3)GlcNAc(b1-6)GalNAc
# In short: as §1
# [10] = target: Fuc(a1-2)[Gal(a1-3)]Gal(b1-4)Glc
# In short: as §1
# [11] = target: Fuc(a1-2)[Gal(a1-3)]Gal(b1-4)GlcNAc
# In short: as §1
# [12] = target: Fuc(a1-2)[Gal(a1-3)]Gal(b1-4)GlcNAc(b1-2)Man
# In short: as §1
# [13] = target: Fuc(a1-2)[Gal(a1-3)]Gal(b1-4)GlcNAc(b1-2)Man(a1-3)[Fuc(a1-2)[Gal(a1-3)]Gal(b1-4)GlcNAc(b1-2)Man(a1-6)]Man(b1-4)GlcNAc(b1-4)GlcNAc
# In short: as §1
# [14] = target: Fuc(a1-2)[Gal(a1-3)]Gal(b1-4)GlcNAc(b1-2)Man(a1-3)[Fuc(a1-2)[Gal(a1-3)]Gal(b1-4)GlcNAc(b1-2)Man(a1-6)]Man(b1-4)GlcNAc(b1-4)[Fuc(a1-6)]GlcNAc
# In short: as §1
# [15] = target: Fuc(a1-2)[Gal(a1-3)]Gal(b1-4)GlcNAc(b1-3)GalNAc
# In short: as §1
# [16] = target: Fuc(a1-2)[Gal(a1-3)]Gal(b1-4)GlcNAc(b1-3)[Fuc(a1-2)[Gal(a1-3)]Gal(b1-4)GlcNAc(b1-6)]GalNAc
# In short: as §1
# [17] = target: Fuc(a1-2)[Gal(a1-3)]Gal(b1-4)GlcNAc(b1-6)GalNAc
# In short: as §1
# [18] = target: Fuc(a1-2)[Gal(a1-3)]Gal(b1-4)[Fuc(a1-3)]Glc
# In short: as §1
# [19] = target: Fuc(a1-2)[Gal(a1-3)]Gal(b1-4)[Fuc(a1-3)]GlcNAc
# In short: as §1
# [20] = target: Fuc(a1-2)[Gal(a1-3)]Gal(b1-4)[Fuc(a1-3)]GlcNAc(b1-3)GalNAc
# In short: as §1
# [21] = target: Fuc(a1-2)[Gal(a1-4)]Gal(b1-4)GlcNAc
# In short: as §1
# [22] = target: Fuc(a1-2)[GalNAc(a1-3)]Gal
# In short: as §1
# [23] = target: Fuc(a1-2)[GalNAc(a1-3)]Gal(b1-3)GalNAc(a1-3)[Fuc(a1-2)]Gal(b1-4)GlcNAc
# In short: as §1
# [24] = target: Fuc(a1-2)[GalNAc(a1-3)]Gal(b1-3)GalNAc(b1-3)Gal(a1-4)Gal(b1-4)Glc
# In short: as §1
# [25] = target: Fuc(a1-2)[GalNAc(a1-3)]Gal(b1-3)GlcNAc
# In short: as §1
# [26] = target: Fuc(a1-2)[GalNAc(a1-3)]Gal(b1-3)GlcNAc(b1-2)Man(a1-3)[Fuc(a1-2)[GalNAc(a1-3)]Gal(b1-3)GlcNAc(b1-2)Man(a1-6)]Man(b1-4)GlcNAc(b1-4)GlcNAc
# In short: as §1
# [27] = target: Fuc(a1-2)[GalNAc(a1-3)]Gal(b1-3)GlcNAc(b1-2)Man(a1-3)[Fuc(a1-2)[GalNAc(a1-3)]Gal(b1-3)GlcNAc(b1-2)Man(a1-6)]Man(b1-4)GlcNAc(b1-4)[Fuc(a1-6)]GlcNAc
# In short: as §1
# [28] = target: Fuc(a1-2)[GalNAc(a1-3)]Gal(b1-3)GlcNAc(b1-3)GalNAc
# In short: as §1
# [29] = target: Fuc(a1-2)[GalNAc(a1-3)]Gal(b1-3)GlcNAc(b1-6)GalNAc
# In short: as §1
# [30] = target: Fuc(a1-2)[GalNAc(a1-3)]Gal(b1-4)Glc
# In short: as §1
# [31] = target: Fuc(a1-2)[GalNAc(a1-3)]Gal(b1-4)GlcNAc
# In short: as §1
# [32] = target: Fuc(a1-2)[GalNAc(a1-3)]Gal(b1-4)GlcNAc(b1-2)Man
# In short: as §1
# [33] = target: Fuc(a1-2)[GalNAc(a1-3)]Gal(b1-4)GlcNAc(b1-2)Man(a1-3)[Fuc(a1-2)[GalNAc(a1-3)]Gal(b1-4)GlcNAc(b1-2)Man(a1-6)]Man(b1-4)GlcNAc(b1-4)GlcNAc
# In short: as §1
# [34] = target: Fuc(a1-2)[GalNAc(a1-3)]Gal(b1-4)GlcNAc(b1-2)Man(a1-3)[Fuc(a1-2)[GalNAc(a1-3)]Gal(b1-4)GlcNAc(b1-2)Man(a1-6)]Man(b1-4)GlcNAc(b1-4)[Fuc(a1-6)]GlcNAc
# In short: as §1
# [35] = target: Fuc(a1-2)[GalNAc(a1-3)]Gal(b1-4)GlcNAc(b1-3)Gal(b1-4)GlcNAc
# In short: as §1
# [36] = target: Fuc(a1-2)[GalNAc(a1-3)]Gal(b1-4)GlcNAc(b1-3)Gal(b1-4)GlcNAc(b1-3)Gal(b1-4)GlcNAc
# In short: as §1
# [37] = target: Fuc(a1-2)[GalNAc(a1-3)]Gal(b1-4)GlcNAc(b1-3)GalNAc
# In short: as §1
# [38] = target: Fuc(a1-2)[GalNAc(a1-3)]Gal(b1-4)GlcNAc(b1-3)[Fuc(a1-2)[GalNAc(a1-3)]Gal(b1-4)GlcNAc(b1-6)]GalNAc
# In short: as §1
# [39] = target: Fuc(a1-2)[GalNAc(a1-3)]Gal(b1-4)GlcNAc(b1-6)GalNAc
# In short: as §1
# [40] = target: Fuc(a1-2)[GalNAc(a1-3)]Gal(b1-4)[Fuc(a1-3)]GlcNAc
# In short: as §1
# [41] = target: Fuc(a1-2)[GalNAc(a1-3)]Gal(b1-4)[Fuc(a1-3)]GlcNAc(b1-3)GalNAc
# In short: as §1
# [42] = target: Fuc(a1-2)[GalNAc(a1-4)]Gal(b1-4)GlcNAc
# In short: as §1
# [43] = target: Fuc(a1-2)[GalNAc(b1-3)]Gal
# In short: as §1
binder,measurement,setting,value
pilr alpha (protein) MLYGVTQPKHLSASMGGSVEIPFSFYYPWELATAPDVRISWRRGHFHRQSFYSTRPPSIHKDYVNRLFLNWTEGQKSGFLRISNLQKQDQSVYFCRVELDTRSSGRQQWQSIEGTKLSIT,glycan array binding signal (z-score),[1],-0.16
same,glycan array binding signal (z-score),Fuc(a1-2)Gal6S(b1-4)Glc,-0.519
same,glycan array binding signal (z-score),[2],0.033
same,glycan array binding signal (z-score),Fuc(a1-2)[Gal(a1-3)]Gal,1.5
same,glycan array binding signal (z-score),[3],0.531
same,glycan array binding signal (z-score),[4],0.344
same,glycan array binding signal (z-score),[5],0.165
same,glycan array binding signal (z-score),[6],-0.093
same,glycan array binding signal (z-score),[7],-0.464
same,glycan array binding signal (z-score),[8],-0.529
same,glycan array binding signal (z-score),[9],-0.796
same,glycan array binding signal (z-score),[10],-0.394
same,glycan array binding signal (z-score),[11],-0.848
same,glycan array binding signal (z-score),[12],0.092
same,glycan array binding signal (z-score),[13],-0.681
same,glycan array binding signal (z-score),[14],-0.349
same,glycan array binding signal (z-score),[15],-0.646
same,glycan array binding signal (z-score),[16],-0.015
same,glycan array binding signal (z-score),[17],-0.722
same,glycan array binding signal (z-score),[18],0.055
same,glycan array binding signal (z-score),[19],-0.462
same,glycan array binding signal (z-score),[20],-0.278
same,glycan array binding signal (z-score),[21],0.433
same,glycan array binding signal (z-score),[22],-0.087
same,glycan array binding signal (z-score),[23],-0.449
same,glycan array binding signal (z-score),[24],-0.261
same,glycan array binding signal (z-score),[25],0.551
same,glycan array binding signal (z-score),[26],-0.081
same,glycan array binding signal (z-score),[27],-0.608
same,glycan array binding signal (z-score),[28],-0.147
same,glycan array binding signal (z-score),[29],-0.309
same,glycan array binding signal (z-score),[30],0.839
same,glycan array binding signal (z-score),[31],-0.195
same,glycan array binding signal (z-score),[32],-0.251
same,glycan array binding signal (z-score),[33],0.043
same,glycan array binding signal (z-score),[34],-0.529
same,glycan array binding signal (z-score),[35],-0.543
same,glycan array binding signal (z-score),[36],0.261
same,glycan array binding signal (z-score),[37],-0.415
same,glycan array binding signal (z-score),[38],-0.94
same,glycan array binding signal (z-score),[39],-0.245
same,glycan array binding signal (z-score),[40],-0.358
same,glycan array binding signal (z-score),[41],6.68
same,glycan array binding signal (z-score),[42],0.018
same,glycan array binding signal (z-score),[43],-0.304
